Measured values published in PMC8027484.
Results are given in words; binding and its absence hold for the method and conditions named. In cells and extracts the contact can be indirect. A yes stands for co-enrichment or nearness to the bait. Other partners may have been found. Where a sequence is shown, tags or fusion partners need not be part of it. Each block holds one binder with its values, some of them ahead of it.

Biological target: T1, 3×Flag-tagged-FLVCR1 (feline leukemia virus subgroup C receptor 1) (UniProt Q9Y5Y0)
T1 sequence: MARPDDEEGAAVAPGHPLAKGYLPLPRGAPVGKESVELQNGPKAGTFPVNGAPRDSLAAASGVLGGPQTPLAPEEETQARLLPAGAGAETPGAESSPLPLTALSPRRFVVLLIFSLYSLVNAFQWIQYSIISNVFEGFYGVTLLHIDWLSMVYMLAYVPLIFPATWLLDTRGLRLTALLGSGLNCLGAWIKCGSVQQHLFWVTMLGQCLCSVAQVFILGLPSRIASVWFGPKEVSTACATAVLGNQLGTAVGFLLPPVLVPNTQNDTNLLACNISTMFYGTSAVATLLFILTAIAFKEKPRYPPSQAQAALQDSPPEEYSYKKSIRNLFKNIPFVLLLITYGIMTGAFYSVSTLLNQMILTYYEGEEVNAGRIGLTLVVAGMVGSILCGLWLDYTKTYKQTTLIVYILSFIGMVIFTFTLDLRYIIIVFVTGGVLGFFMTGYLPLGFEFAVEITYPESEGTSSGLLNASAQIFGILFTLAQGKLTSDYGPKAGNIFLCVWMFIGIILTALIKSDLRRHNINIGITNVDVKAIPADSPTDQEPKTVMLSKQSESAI
Assay: affinity purification with mass spectrometry; lysates of KYSE-150 cells stably expressing 3×Flag-tagged FLVCR1 (OE) or control (NC); anti-FLAG beads, eluted with 3×FLAG peptide, SDS-PAGE with Coomassie staining, bands digested with trypsin, LC-MS; proteins detected in the OE group

binding: binds
B1: DSC1 (protein, UniProt Q08554 135-894)
chain: RWAPIPASLMENSLGPFPQHVQQIQSDAAQNYTIFYSISGPGVDKEPFNLFYIEKDTGDIFCTRSIDREKYEQFALYGYATTADGYAPEYPLPLIIKIEDDNDNAPYFEHRVTIFTVPENCRSGTSVGKVTATDLDEPDTLHTRLKYKILQQIPDHPKHFSIHPDTGVITTTTPFLDREKCDTYQLIMEVRDMGGQPFGLFNTGTITISLEDENDNPPSFTETSYVTEVEENRIDVEILRMKVQDQDLPNTPHSKAVYKILQGNENGNFIISTDPNTNEGVLCVVKPLNYEVNRQVILQVGVINEAQFSKAASSQTPTMCTTTVTVKIIDSDEGPECHPPVKVIQSQDGFPAGQELLGYKALDPEISSGEGLRYQKLGDEDNWFEINQHTGDLRTLKVLDRESKFVKNNQYNISVVAVDAVGRSCTGTLVVHLDDYNDHAPQIDKEVTICQNNEDFAVLKPVDPDGPENGPPFQFFLDNSASKNWNIEEKDGKTAILRQRQNLDYNYYSVPIQIKDRHGLVATHMLTVRVCDCSTPSECRMKDKSTRDVRPNVILGRWAILAMVLGSVLLLCILFTCFCVTAKRTVKKCFPEDIAQQNLIVSNTEGPGEEVTEANIRLPMQTSNICDTSMSVGTVGGQGIKTQQSFEMVKGGYTLDSNKGGGHQTLESVKGVGQGDTGRYAYTDWQSFTQPRLGEKVYLCGQDEEHKHCEDYVCSYNYEGKGSLAGSVGCCSDRQEEEGLEFLDHLEPKFRTLAKTCIKK

binding: binds
B2: PLCD4 (protein, UniProt Q9BRC7 1-762)
chain: MASLLQDQLTTDQDLLLMQEGMPMRKVRSKSWKKLRYFRLQNDGMTVWHARQARGSAKPSFSISDVETIRNGHDSELLRSLAEELPLEQGFTIVFHGRRSNLDLMANSVEEAQIWMRGLQLLVDLVTSMDHQERLDQWLSDWFQRGDKNQDGKMSFQEVQRLLHLMNVEMDQEYAFSLFQAADTSQSGTLEGEEFVQFYKALTKRAEVQELFESFSADGQKLTLLEFLDFLQEEQKERDCTSELALELIDRYEPSDSGKLRHVLSMDGFLSYLCSKDGDIFNPACLPIYQDMTQPLNHYFICSSHNTYLVGDQLCGQSSVEGYIRALKRGCRCVEVDVWDGPSGEPVVYHGHTLTSRILFKDVVATVAQYAFQTSDYPVILSLETHCSWEQQQTMARHLTEILGEQLLSTTLDGVLPTQLPSPEELRRKILVKGKKLTLEEDLEYEEEEAEPELEESELALESQFETEPEPQEQNLQNKDKKKKSKPILCPALSSLVIYLKSVSFRSFTHSKEHYHFYEISSFSETKAKRLIKEAGNEFVQHNTWQLSRVYPSGLRTDSSNYNPQELWNAGCQMVAMNMQTAGLEMDICDGHFRQNGGCGYVLKPDFLRDIQSSFHPEKPISPFKAQTLLIQVISGQQLPKVDKTKEGSIVDPLVKVQIFGVRLDTARQETNYVENNGFNPYWGQTLCFRVLVPELAMLRFVVMDYDWKSRNDFIGQYTLPWTCMQQGYRHIHLLSKDGISLRPASIFVYICIQEGLEGDES

binding: binds
B3: CEBPZ (protein, UniProt Q03701 1-1054)
chain: MAAVKEPLEFHAKRPWRPEEAVEDPDEEDEDNTSEAENGFSLEEVLRLGGTKQDYLMLATLDENEEVIDGGKKGAIDDLQQGELEAFIQNLNLAKYTKASLVEEDEPAEKENSSKKEVKIPKINNKNTAESQRTSVNKVKNKNRPEPHSDENGSTTPKVKKDKQNIFEFFERQTLLLRPGGKWYDLEYSNEYSLKPQPQDVVSKYKTLAQKLYQHEINLFKSKTNSQKGASSTWMKAIVSSGTLGDRMAAMILLIQDDAVHTLQFVETLVNLVKKKGSKQQCLMALDTFKELLITDLLPDNRKLRIFSQRPFDKLEQLSSGNKDSRDRRLILWYFEHQLKHLVAEFVQVLETLSHDTLVTTKTRALTVAHELLCNKPEEEKALLVQVVNKLGDPQNRIATKASHLLETLLCKHPNMKGVVSGEVERLLFRSNISSKAQYYAICFLNQMALSHEESELANKLITVYFCFFRTCVKKKDVESKMLSALLTGVNRAYPYSQTGDDKVREQIDTLFKVLHIVNFNTSVQALMLLFQVMNSQQTISDRYYTALYRKMLDPGLMTCSKQAMFLNLVYKSLKADIVLRRVKAFVKRLLQVTCQQMPPFICGALYLVSEILKAKPGLRSQLDDHPESDDEENFIDANDDEDMEKFTDADKETEIVKKLETEETVPETDVETKKPEVASWVHFDNLKGGKQLNKYDPFSRNPLFCGAENTSLWELKKLSVHFHPSVALFAKTILQGNYIQYSGDPLQDFTLMRFLDRFVYRNPKPHKGKENTDSVVMQPKRKHFIKDIRHLPVNSKEFLAKEESQIPVDEVFFHRYYKKVAVKEKQKRDADEESIEDVDDEEFEELIDTFEDDNCFSSGKDDMDFAGNVKKRTKGAKDNTLDEDSEGSDDELGNLDDDEVSLGSMDDEEFAEVDEDGGTFMDVLDDESESVPELEVHSKVSTKKSKRKGTDDFDFAGSFQGPRKKKRNLNDSSLFVSAEEFGHLLDENMGSKFDNIGMNAMANKDNASLKQLRWEAERDDWLHNRDAKSIIKKKKHFKKKRIKTTQKTKKQRK

binding: binds
B4: HK1 (protein, UniProt P19367 1-917)
chain: MIAAQLLAYYFTELKDDQVKKIDKYLYAMRLSDETLIDIMTRFRKEMKNGLSRDFNPTATVKMLPTFVRSIPDGSEKGDFIALDLGGSSFRILRVQVNHEKNQNVHMESEVYDTPENIVHGSGSQLFDHVAECLGDFMEKRKIKDKKLPVGFTFSFPCQQSKIDEAILITWTKRFKASGVEGADVVKLLNKAIKKRGDYDANIVAVVNDTVGTMMTCGYDDQHCEVGLIIGTGTNACYMEELRHIDLVEGDEGRMCINTEWGAFGDDGSLEDIRTEFDREIDRGSLNPGKQLFEKMVSGMYLGELVRLILVKMAKEGLLFEGRITPELLTRGKFNTSDVSAIEKNKEGLHNAKEILTRLGVEPSDDDCVSVQHVCTIVSFRSANLVAATLGAILNRLRDNKGTPRLRTTVGVDGSLYKTHPQYSRRFHKTLRRLVPDSDVRFLLSESGSGKGAAMVTAVAYRLAEQHRQIEETLAHFHLTKDMLLEVKKRMRAEMELGLRKQTHNNAVVKMLPSFVRRTPDGTENGDFLALDLGGTNFRVLLVKIRSGKKRTVEMHNKIYAIPIEIMQGTGEELFDHIVSCISDFLDYMGIKGPRMPLGFTFSFPCQQTSLDAGILITWTKGFKATDCVGHDVVTLLRDAIKRREEFDLDVVAVVNDTVGTMMTCAYEEPTCEVGLIVGTGSNACYMEEMKNVEMVEGDQGQMCINMEWGAFGDNGCLDDIRTHYDRLVDEYSLNAGKQRYEKMISGMYLGEIVRNILIDFTKKGFLFRGQISETLKTRGIFETKFLSQIESDRLALLQVRAILQQLGLNSTCDDSILVKTVCGVVSRRAAQLCGAGMAAVVDKIRENRGLDRLNVTVGVDGTLYKLHPHFSRIMHQTVKELSPKCNVSFLLSEDGSGKGAALITAVGVRLRTEASS

binding: binds
B5: MDK (protein, UniProt P21741 21-143)
chain: VAKKKDKVKKGGPGSECAEWAWGPCTPSSKDCGVGFREGTCGAQTQRIRCRVPCNWKKEFGADCKYKFENWGACDGGTGTKVRQGTLKKARYNAQCQETIRVTKPCTPKTKAKAKAKKGKGKD
